Among the data in article doi:10.64898/2025.12.02.691793 are binding values, retold here.

Chains of the proteins cited; added tags and fusions are not shown. Lines headed by an entry give the natural chain unless they say otherwise; changes in a name come on top.
UniProt Q9UPN9: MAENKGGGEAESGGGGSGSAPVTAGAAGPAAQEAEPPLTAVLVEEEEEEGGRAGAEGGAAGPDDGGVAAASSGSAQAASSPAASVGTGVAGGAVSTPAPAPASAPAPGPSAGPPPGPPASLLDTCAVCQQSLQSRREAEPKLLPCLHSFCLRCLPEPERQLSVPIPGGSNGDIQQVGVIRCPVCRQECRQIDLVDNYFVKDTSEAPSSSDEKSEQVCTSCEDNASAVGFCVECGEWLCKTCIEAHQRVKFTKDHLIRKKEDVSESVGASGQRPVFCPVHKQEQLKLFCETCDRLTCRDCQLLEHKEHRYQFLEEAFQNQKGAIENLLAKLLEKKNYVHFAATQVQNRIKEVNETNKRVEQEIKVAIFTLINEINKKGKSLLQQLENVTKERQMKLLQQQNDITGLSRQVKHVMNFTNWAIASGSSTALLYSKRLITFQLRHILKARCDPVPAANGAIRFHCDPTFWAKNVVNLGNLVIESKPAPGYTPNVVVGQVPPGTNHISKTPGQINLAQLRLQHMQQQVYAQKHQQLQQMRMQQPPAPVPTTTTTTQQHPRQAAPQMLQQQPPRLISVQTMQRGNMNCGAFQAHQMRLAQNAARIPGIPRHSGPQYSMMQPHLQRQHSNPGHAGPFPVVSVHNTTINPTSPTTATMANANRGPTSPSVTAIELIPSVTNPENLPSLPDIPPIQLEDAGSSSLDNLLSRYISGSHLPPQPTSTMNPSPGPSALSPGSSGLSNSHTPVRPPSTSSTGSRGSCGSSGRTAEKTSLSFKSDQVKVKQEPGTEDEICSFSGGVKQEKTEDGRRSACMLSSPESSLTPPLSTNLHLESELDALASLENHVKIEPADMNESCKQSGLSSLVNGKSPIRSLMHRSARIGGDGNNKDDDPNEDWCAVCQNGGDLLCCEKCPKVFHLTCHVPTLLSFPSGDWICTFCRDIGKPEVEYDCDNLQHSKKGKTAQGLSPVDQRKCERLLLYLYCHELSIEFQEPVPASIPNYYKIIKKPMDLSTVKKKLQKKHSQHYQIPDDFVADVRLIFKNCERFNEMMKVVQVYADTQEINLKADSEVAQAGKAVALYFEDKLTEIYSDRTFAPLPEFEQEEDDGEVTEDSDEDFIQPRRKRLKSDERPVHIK
UniProt P0C0S5: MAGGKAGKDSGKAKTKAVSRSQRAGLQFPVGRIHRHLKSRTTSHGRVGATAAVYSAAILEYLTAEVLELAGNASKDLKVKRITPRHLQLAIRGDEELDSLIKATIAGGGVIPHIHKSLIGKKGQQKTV
UniProt Q9Y4A5: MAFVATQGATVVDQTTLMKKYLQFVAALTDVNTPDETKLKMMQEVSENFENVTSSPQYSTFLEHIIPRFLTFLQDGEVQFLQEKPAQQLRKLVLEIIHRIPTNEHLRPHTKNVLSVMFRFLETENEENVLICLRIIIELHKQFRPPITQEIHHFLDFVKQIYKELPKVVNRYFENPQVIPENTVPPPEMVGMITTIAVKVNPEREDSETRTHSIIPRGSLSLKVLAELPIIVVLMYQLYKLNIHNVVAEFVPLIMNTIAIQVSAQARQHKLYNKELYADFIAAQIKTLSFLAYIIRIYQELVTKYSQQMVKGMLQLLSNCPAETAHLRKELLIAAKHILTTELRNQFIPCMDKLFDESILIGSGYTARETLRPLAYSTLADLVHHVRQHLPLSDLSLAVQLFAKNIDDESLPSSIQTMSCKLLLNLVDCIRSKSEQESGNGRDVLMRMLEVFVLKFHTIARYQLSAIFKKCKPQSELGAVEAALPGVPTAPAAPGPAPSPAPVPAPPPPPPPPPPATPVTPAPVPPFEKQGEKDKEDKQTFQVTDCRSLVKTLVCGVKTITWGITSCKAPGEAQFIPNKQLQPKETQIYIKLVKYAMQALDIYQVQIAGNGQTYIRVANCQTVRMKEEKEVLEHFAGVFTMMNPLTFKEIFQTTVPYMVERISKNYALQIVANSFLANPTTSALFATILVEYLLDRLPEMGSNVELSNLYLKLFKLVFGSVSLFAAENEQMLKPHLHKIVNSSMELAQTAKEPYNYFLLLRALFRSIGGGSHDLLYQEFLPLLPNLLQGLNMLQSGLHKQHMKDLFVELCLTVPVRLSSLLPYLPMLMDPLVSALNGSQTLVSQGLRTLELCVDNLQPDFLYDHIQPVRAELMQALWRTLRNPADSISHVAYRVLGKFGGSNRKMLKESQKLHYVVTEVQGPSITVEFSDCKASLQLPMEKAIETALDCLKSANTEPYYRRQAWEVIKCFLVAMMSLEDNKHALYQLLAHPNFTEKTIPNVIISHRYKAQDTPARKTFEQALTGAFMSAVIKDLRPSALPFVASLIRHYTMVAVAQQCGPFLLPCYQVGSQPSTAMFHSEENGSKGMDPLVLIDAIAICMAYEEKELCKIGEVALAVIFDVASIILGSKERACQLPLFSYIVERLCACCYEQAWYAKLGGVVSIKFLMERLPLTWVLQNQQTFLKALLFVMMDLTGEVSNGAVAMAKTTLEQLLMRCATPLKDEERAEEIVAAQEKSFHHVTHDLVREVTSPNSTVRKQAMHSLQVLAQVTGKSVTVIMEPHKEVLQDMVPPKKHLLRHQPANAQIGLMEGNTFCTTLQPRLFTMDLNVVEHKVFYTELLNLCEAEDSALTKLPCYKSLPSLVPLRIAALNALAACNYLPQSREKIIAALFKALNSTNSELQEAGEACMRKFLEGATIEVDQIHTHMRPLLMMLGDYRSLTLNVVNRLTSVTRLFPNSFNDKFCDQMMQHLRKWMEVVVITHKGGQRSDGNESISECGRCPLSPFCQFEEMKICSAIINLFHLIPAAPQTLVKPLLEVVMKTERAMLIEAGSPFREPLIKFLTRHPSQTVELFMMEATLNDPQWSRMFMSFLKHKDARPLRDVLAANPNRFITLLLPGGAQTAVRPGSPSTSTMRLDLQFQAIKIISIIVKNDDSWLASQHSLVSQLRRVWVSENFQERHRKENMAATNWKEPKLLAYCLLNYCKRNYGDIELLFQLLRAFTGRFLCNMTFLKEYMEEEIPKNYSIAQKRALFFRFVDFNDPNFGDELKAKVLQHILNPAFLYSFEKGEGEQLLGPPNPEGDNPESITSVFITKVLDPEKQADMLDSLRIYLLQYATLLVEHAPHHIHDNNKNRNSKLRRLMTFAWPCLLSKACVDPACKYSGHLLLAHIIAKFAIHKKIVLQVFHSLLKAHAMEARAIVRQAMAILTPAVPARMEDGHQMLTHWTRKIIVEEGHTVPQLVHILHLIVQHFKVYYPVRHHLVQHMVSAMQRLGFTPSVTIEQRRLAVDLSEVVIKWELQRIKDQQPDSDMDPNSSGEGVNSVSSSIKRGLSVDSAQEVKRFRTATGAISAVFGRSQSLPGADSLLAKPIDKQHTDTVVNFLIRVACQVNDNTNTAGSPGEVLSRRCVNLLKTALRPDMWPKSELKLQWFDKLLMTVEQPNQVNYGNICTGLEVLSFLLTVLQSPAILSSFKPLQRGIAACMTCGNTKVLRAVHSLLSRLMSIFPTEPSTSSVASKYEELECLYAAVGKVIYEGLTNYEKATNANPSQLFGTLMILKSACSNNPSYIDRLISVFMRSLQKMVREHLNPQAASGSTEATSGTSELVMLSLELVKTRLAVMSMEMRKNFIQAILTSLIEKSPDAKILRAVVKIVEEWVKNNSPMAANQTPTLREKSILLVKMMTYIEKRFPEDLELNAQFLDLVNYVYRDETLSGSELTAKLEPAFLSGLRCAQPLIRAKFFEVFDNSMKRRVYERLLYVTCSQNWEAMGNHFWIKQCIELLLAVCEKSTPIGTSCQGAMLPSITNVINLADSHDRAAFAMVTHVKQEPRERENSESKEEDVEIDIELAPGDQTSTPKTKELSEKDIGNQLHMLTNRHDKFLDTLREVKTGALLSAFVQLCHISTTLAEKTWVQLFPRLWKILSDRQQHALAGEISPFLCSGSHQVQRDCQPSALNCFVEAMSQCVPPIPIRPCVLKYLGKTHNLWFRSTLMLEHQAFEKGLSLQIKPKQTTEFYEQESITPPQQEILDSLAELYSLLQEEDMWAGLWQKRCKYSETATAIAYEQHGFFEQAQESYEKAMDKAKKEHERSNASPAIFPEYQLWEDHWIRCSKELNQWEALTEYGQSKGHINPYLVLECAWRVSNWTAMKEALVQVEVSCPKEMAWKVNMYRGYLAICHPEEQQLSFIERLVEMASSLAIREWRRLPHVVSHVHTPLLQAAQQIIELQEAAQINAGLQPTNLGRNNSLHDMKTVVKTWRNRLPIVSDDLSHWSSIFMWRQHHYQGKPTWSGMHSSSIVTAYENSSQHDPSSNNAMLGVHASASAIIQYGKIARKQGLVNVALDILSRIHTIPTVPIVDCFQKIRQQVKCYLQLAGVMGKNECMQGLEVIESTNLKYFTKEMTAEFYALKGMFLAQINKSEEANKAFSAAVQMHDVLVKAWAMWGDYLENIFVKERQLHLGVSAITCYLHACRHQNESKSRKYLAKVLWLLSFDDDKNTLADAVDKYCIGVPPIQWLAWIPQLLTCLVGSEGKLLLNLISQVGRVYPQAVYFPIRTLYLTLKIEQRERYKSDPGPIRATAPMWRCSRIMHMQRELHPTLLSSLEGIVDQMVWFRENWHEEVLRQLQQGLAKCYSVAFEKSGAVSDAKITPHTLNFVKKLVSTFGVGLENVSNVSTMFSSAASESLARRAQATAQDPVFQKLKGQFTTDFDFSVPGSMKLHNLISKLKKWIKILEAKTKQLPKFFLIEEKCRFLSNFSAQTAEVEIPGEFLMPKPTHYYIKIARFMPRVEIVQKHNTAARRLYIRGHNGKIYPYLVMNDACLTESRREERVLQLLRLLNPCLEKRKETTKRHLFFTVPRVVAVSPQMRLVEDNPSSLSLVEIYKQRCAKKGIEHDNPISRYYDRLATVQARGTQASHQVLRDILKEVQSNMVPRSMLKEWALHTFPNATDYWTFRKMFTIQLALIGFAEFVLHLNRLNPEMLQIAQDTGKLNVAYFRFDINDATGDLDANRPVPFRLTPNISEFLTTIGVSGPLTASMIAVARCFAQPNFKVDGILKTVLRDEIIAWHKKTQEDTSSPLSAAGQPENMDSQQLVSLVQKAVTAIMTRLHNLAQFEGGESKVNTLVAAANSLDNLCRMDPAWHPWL

Results are given in words; binding and its absence hold for the method and conditions named. Binding seen in cells or lysates may run through a third protein. A yes stands for co-enrichment or nearness to the bait. Other partners may have been found.

In the experiment the target is Transcriptional Intermediary Factor 1γ (TIF1γ) (human (endogenous in HSC-3 and HSC-4)) (UniProt Q9UPN9). Kind of experiment: affinity purification with mass spectrometry.

Turning to H2A.Z (from UniProt P0C0S5 1-128), the binding result is reported as “binds”.

On to TRRAP (from UniProt Q9Y4A5 1-3859), for which the binding entry is given as “binds”.
